According to patent publication US20220072098A1 (priority 2012, published 2022):
At least one structure is not confirmed: it was looked up by name or label, or the drawing left a doubt.

By UniProt entry, the sequences of proteins in these tests, tags left out. Residues count along the entry.
UniProt P22303, 32-614: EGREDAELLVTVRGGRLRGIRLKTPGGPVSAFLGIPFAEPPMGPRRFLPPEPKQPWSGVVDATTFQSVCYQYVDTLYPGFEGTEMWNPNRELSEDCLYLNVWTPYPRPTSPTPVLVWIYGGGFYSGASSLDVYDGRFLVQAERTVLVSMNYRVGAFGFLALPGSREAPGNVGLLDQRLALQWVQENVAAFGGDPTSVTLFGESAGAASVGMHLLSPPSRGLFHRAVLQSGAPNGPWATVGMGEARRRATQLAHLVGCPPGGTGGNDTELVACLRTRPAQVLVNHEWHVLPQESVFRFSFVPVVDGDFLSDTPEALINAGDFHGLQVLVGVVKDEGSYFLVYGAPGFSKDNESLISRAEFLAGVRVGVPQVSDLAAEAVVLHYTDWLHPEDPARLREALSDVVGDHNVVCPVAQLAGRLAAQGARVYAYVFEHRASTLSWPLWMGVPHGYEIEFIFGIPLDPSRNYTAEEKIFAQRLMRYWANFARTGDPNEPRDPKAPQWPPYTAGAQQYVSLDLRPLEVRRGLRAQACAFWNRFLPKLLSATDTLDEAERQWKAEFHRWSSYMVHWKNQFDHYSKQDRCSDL

Target: AChE (Homo sapiens, UniProt P22303)
Assay: Head group hydrolysis by AChE / choline esterases
Type: biochemical
Experimental: FIG. 41: Hydrolysis of the ACh head group of bioamphiphiles GLH-20 and GLH-32 by AChE. Hydrolysis was measured by determining the pH change after addition of AChE to the incubation medium and was converted to change in the proton concentration.

Compound: CC(=O)SCC[N+](C)(C)C [ATC, acetylthiocholine, reference compound]
- hydrolysis of ACh head group by AChE / ChE: much faster
